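A cell-based FRET test of anthrax lethal toxin entry, tracked through the 460 nm emission signal; the cell line is not named here.
Each compound was tested as a concentration series from about 0.0005 to 40 µM.
The number is the fitted AC50 of the 460 nm signal alone; lower values mean a more potent effect. A falling signal goes with compounds filed as inhibitors or cytotoxic, a rising one with activators or fluorescent compounds (inferred from the filed classes).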

Values are in nM.
Common to all entries: measured here: 460 nm channel.
This is a side read-out of the assay, for part of the compounds, not drawn at random.
Potencies fitted to partial, single-point or poorly fitting curves are rough.
The first word of each remark tells which way the curve ran; it can be opposite to the aim of the assay.

For COc1ccc(-c2nnc(SC(=O)N3c4ccccc4Sc4ccccc43)o2)cc1 the result was AC50 1000 nM (falling, partial curve). For COc1c2occc2cc2ccc(=O)oc12 the result was AC50 31622 nM (falling, partial curve). CN(C)Cc1ccccc1-c1ccc2ncnc(NC3CCNCC3)c2c1 gave AC50 31622 nM (falling, single point). Result for Cc1cc(S(=O)(=O)N(Cc2ccccc2)Cc2ccc(N(C)C)cc2)ccc1-n1cnnn1 was AC50 31622 nM (falling, single point). With O=C(CN1CCc2ccccc21)Nc1ccc2c(c1)OCO2 the assay gave AC50 25118 nM (falling, single point). For C/C(CCN1CCCc2nc(C)c(C)cc21)=N\O[C@@H](C)c1cn([C@H](CO)Cc2ccccc2)nn1 the result was AC50 3981 nM (rising, partial curve). With CCCCOc1ccc(-c2nnn(CC(=O)Nc3ncc(CC(=O)OCC)s3)n2)cc1 the assay gave AC50 2512 nM (falling, single point).

Cc1cccc(N2CCN(c3cccc(C)c3)C2c2cccnc2)c1 gave AC50 10000 nM (falling, partial curve). CC(C)(C)OC(=O)C1=NOC2(C=CC(=O)C=C2)C1 gave AC50 5012 nM (falling, single point). With Cc1ccc2c(CNCc3ccco3)cc(=O)oc2c1 the assay gave AC50 5012 nM (rising, full curve). For COC(=O)c1ccccc1NC(=O)CNc1cc(Cl)ccc1N1CCOCC1 the result was AC50 10000 nM (falling, single point). With O=c1c2ccccc2oc2nc3n(c(=O)c12)CCCS3 the assay gave AC50 12.59 nM (falling, full curve, poor fit). With CC(=O)/C(C)=N\O the assay gave AC50 12589 nM (falling, single point). With Oc1c(I)cc(Cl)c2cccnc12 the assay gave AC50 25118 nM (falling, partial curve).

Result for Cc1c(C(=O)OCC(C)C)[nH]c2c1C(=O)CC(c1ccco1)C2 (stereo unspecified) was AC50 631 nM (falling, full curve). For CC(Cl)CCl (stereo unspecified) the result was AC50 1995 nM (falling, partial curve, poor fit). CCN(CC)S(=O)(=O)c1cccc(-c2nnc(SCCOc3ccccc3)o2)c1 read AC50 31622 nM (falling, single point). Result for CCc1ccccc1S(=O)(=O)Cc1ccc(C(=O)NCc2ccc3c(c2)OCO3)o1 was AC50 12589 nM (falling, single point). Result for CC(=O)O[C@H]1CC[C@@]2(C)[C@@H](CC[C@H]3[C@H]2CC(=O)[C@]2(C)[C@@H]3C[C@@H](N3CC3)[C@H]2C(C)=O)C1 was AC50 15.85 nM (falling, full curve, poor fit). CCCOCCOC(=O)c1[nH]c2c(c1C)C(=O)CC(c1cc(OC)ccc1OC)C2 (stereo unspecified) read AC50 1259 nM (falling, full curve). With CN(Cc1ccco1)c1ncnc2ccc(-c3ccccc3C(F)(F)F)cc12 the assay gave AC50 31622 nM (falling, single point).

With Cc1cccc(N(C)C(=S)Oc2ccc3ccccc3c2)c1 the assay gave AC50 10000 nM (falling, partial curve). COc1ccc(-c2csc(N(CC3CCCO3)C(=O)c3ccco3)n2)cc1 (stereo unspecified) read AC50 19952 nM (falling, single point). COc1cccc(-c2cc(NCc3ccc(OC)cc3OC)ncn2)c1 read AC50 25118 nM (falling, single point). Result for Cc1cc(NC(=O)CCCC(=O)Nc2ccc(F)cc2)no1 was AC50 158.5 nM (falling, full curve, poor fit). For CC1Cc2ccccc2N1C(=O)Cn1c(=O)oc2cc(S(=O)(=O)N3CCCCC3)ccc21 (stereo unspecified) the result was AC50 3162 nM (falling, partial curve). Result for Oc1ccc(-c2nc(-c3ccc(O)c(O)c3)cs2)cc1 was AC50 15848 nM (falling, partial curve). With O=C(NCc1cccs1)O[C@H]1C[C@H]2CC[C@@H]1C2 the assay gave AC50 1000 nM (falling, single point).

For reference, 3 entries once more:

- CC(=O)/C(C)=N\O : AC50 12589 nM (falling, single point)
- Cc1cc(NC(=O)CCCC(=O)Nc2ccc(F)cc2)no1 : AC50 158.5 nM (falling, full curve, poor fit)
- O=c1c2ccccc2oc2nc3n(c(=O)c12)CCCS3 : AC50 12.59 nM (falling, full curve, poor fit)

From PubChem BioAssay record AID912 (NCATS, 2007).